Results published in publication PMC12890168.
Results are given in words; binding and its absence hold for the method and conditions named. In cells and extracts the contact can be indirect. Some results given as binding are weak or reduced against the parent protein; the word gives no strength. For some of these results: Where a sequence is shown, tags or fusion partners need not be part of it.

How the values were obtained:
[1] = target: T1, BAK (human (endogenous in HeLa)) (UniProt Q16611); experiment: co-IP; HeLa OmpA expressing cells, with or without ABT-737 (1 uM) and S63845 (500 nM) for 3 h with QVD-OPh (10 uM); lysis in 1% CHAPS; BAK precipitated with an antibody against active and inactive BAK (clone 7D10) on protein G agarose overnight at 4 °C; immunoblot for BAK and OmpA
T1 sequence: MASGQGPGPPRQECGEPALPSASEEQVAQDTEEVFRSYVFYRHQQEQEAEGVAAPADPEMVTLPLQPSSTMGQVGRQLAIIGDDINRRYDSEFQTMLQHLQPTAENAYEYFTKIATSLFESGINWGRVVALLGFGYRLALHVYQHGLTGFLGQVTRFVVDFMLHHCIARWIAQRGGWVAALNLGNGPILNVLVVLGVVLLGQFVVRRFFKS

[2] = target: T1, BAK (human (endogenous in HeLa)); experiment: proximity ligation; Tet-OmpA HeLa cells induced with AHT for 48 h, with ABT-737/S63845 and QVD-OPh (Fig 2B); fixed, permeabilised cells; Duolink PLA with antibodies against active BAK (aa23-38 or Ab-1 (TC-100)) and OmpA
[3] = target: T1, BAK (human (endogenous in HeLa)); experiment: co-IP; Ctr-infected HeLa cells (MOI 5) treated with ABT-737 (1 uM) and S63845 (500 nM) for 4 h; mitochondria isolated and lysed in 1% CHAPS; precipitation with BAK (aa23-38) antibody or IgG isotype control; immunoblot for BAK and OmpA
[4] = target: T1, BAK (human (endogenous in HeLa)); experiment: proximity ligation; BAX-deficient HeLa cells, Ctr-infected (MOI 5) 24 h, then ABT-737 (1 uM) and S63845 (500 nM) for 4 h with QVD-OPh (10 uM); fixed, permeabilised cells; PLA with antibodies against active BAK (Ab-1 (TC-100)) and OmpA

B1: OmpA from Chlamydia trachomatis, ectopically expressed in HeLa cells (HeLa OmpA expressing cells of Fig 2A) (protein, UniProt P06597 23-394)
chain: LPVGNPAEPSLMIDGILWEGFGGDPCDPCTTWCDAISMRMGYYGDFVFDRVLQTDVNKEFQMGAKPTTATGNAAAPSTCTARENPAYGRHMQDAEMFTNAAYMALNIWDRFDVFCTLGATSGYLKGNSASFNLVGLFGDNENHATVSDSKLVPNMSLDQSVVELYTDTTFAWSAGARAALWECGCATLGASFQYAQSKPKVEELNVLCNAAEFTINKPKGYVGQEFPLDLKAGTDGVTGTKDASIDYHEWQASLALSYRLNMFTPYIGVKWSRASFDADTIRIAQPKSATTVFDVTTLNPTIAGAGDVKASAEGQLGDTMQIVSLQLNKMKSRKSCGIAVGTTIVDADKYAVTVETRLIDERAAHVNAQFRF
In the case of B1, the binding [1] is reported as “binds”.

B2: OmpA from Chlamydia trachomatis, untagged, tetracycline/AHT-inducible in HeLa cells (Tet-OmpA HeLa cells) (protein, UniProt P06597 23-394)
chain: LPVGNPAEPSLMIDGILWEGFGGDPCDPCTTWCDAISMRMGYYGDFVFDRVLQTDVNKEFQMGAKPTTATGNAAAPSTCTARENPAYGRHMQDAEMFTNAAYMALNIWDRFDVFCTLGATSGYLKGNSASFNLVGLFGDNENHATVSDSKLVPNMSLDQSVVELYTDTTFAWSAGARAALWECGCATLGASFQYAQSKPKVEELNVLCNAAEFTINKPKGYVGQEFPLDLKAGTDGVTGTKDASIDYHEWQASLALSYRLNMFTPYIGVKWSRASFDADTIRIAQPKSATTVFDVTTLNPTIAGAGDVKASAEGQLGDTMQIVSLQLNKMKSRKSCGIAVGTTIVDADKYAVTVETRLIDERAAHVNAQFRF
For B2, the binding [2] was “binds”.

B3: OmpA of Chlamydia trachomatis serovar L2, made by the bacteria during infection of HeLa cells (protein, UniProt P06597 23-394)
chain: LPVGNPAEPSLMIDGILWEGFGGDPCDPCTTWCDAISMRMGYYGDFVFDRVLQTDVNKEFQMGAKPTTATGNAAAPSTCTARENPAYGRHMQDAEMFTNAAYMALNIWDRFDVFCTLGATSGYLKGNSASFNLVGLFGDNENHATVSDSKLVPNMSLDQSVVELYTDTTFAWSAGARAALWECGCATLGASFQYAQSKPKVEELNVLCNAAEFTINKPKGYVGQEFPLDLKAGTDGVTGTKDASIDYHEWQASLALSYRLNMFTPYIGVKWSRASFDADTIRIAQPKSATTVFDVTTLNPTIAGAGDVKASAEGQLGDTMQIVSLQLNKMKSRKSCGIAVGTTIVDADKYAVTVETRLIDERAAHVNAQFRF
B3 was tested, and the binding [3] was “binds” and the binding [4] was “binds”.
